{"source": "PubChem BioAssay AID1259331 | Drosophila RNAi Screening Center, 2017", "purpose": "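Genes whose knock-down changes cell survival under toxic zinc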 (primary screen)", "system": "Drosophila S2R+ cells", "reagents": "long dsRNA against Drosophila genes", "time to read-out": "5 days (4 days knock-down, then 1 day zinc)", "conditions": "zinc chloride at 15 mM final level for 1 day", "measured": "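Total cellular ATP measured by luciferase luminescence as a viability proxy, turned into Z scores from three plate copies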", "scale": "mean Z score: higher = more ATP than other wells, better survival under zinc; ATP luminescence: higher = more ATP, more viable cells", "rule for the call": "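a reagent is called a hit when its Z score is above 1.5 or below -1.5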", "meaning of the calls": "active = hit, ATP up or down; inactive = not a hit", "note": "The deposit covers about 3,100 reagents; this is a random part of them. 126 of them (4.1%) were called active. 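Calls are per reagent; zinc was so toxic that few knock-downs lowered ATP further, so most hits raise ATP.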 Raw values vary from plate to plate and are shown uncorrected. Reagent sequences are not shown. Not stated in the record: the amount of reagent."}
{"target":"Or65c (Odorant receptor 65c)","PubChem SID":"SID104201100","mean Z score":-0.00856,"ATP luminescence, replicate 1":48479,"ATP luminescence, replicate 2":48183,"Outcome":"inactive"}
{"target":"Or65c (Odorant receptor 65c)","PubChem SID":"SID104216996","mean Z score":2,"ATP luminescence, replicate 1":82517,"ATP luminescence, replicate 2":73203,"Outcome":"active"}
{"target":"ppk12 (pickpocket 12)","PubChem SID":"SID104183878","mean Z score":-0.409,"ATP luminescence, replicate 1":47240,"ATP luminescence, replicate 2":37759,"Outcome":"inactive"}
{"target":"ppk12 (pickpocket 12)","PubChem SID":"SID104217287","mean Z score":-0.343,"ATP luminescence, replicate 1":57528,"ATP luminescence, replicate 2":52161,"Outcome":"inactive"}
{"target":"CG7458","PubChem SID":"SID104191621","mean Z score":-0.385,"ATP luminescence, replicate 1":37519,"ATP luminescence, replicate 2":40201,"Outcome":"inactive"}
{"target":"CG7458","PubChem SID":"SID104201119","mean Z score":-0.442,"ATP luminescence, replicate 1":40073,"ATP luminescence, replicate 2":44222,"Outcome":"inactive"}
{"target":"Tango5 (Transport and Golgi organization 5)","PubChem SID":"SID104197815","mean Z score":0.0825,"ATP luminescence, replicate 1":45011,"ATP luminescence, replicate 2":45587,"Outcome":"inactive"}
{"target":"Tango5 (Transport and Golgi organization 5)","PubChem SID":"SID104204045","mean Z score":-0.0725,"ATP luminescence, replicate 1":61524,"ATP luminescence, replicate 2":59003,"Outcome":"inactive"}
{"target":"Ptpmeg2 (Protein tyrosine phosphatase Meg2)","PubChem SID":"SID104198069","mean Z score":-0.122,"ATP luminescence, replicate 1":63187,"ATP luminescence, replicate 2":64885,"Outcome":"inactive"}
{"target":"Ptpmeg2 (Protein tyrosine phosphatase Meg2)","PubChem SID":"SID104202660","mean Z score":1.88,"ATP luminescence, replicate 1":72002,"ATP luminescence, replicate 2":73477,"Outcome":"active"}
{"target":"Ptpmeg2 (Protein tyrosine phosphatase Meg2)","PubChem SID":"SID104205190","mean Z score":0.345,"ATP luminescence, replicate 1":65760,"ATP luminescence, replicate 2":65605,"Outcome":"inactive"}
{"target":"ClC-c (Chloride channel-c)","PubChem SID":"SID104190291","mean Z score":-0.749,"ATP luminescence, replicate 1":21097,"ATP luminescence, replicate 2":28365,"Outcome":"inactive"}
{"target":"ClC-c (Chloride channel-c)","PubChem SID":"SID104217354","mean Z score":-0.256,"ATP luminescence, replicate 1":50835,"ATP luminescence, replicate 2":54493,"Outcome":"inactive"}
{"target":"JhI-21 (Juvenile hormone Inducible-21)","PubChem SID":"SID104181953","mean Z score":-0.424,"ATP luminescence, replicate 1":50481,"ATP luminescence, replicate 2":49966,"Outcome":"inactive"}
{"target":"JhI-21 (Juvenile hormone Inducible-21)","PubChem SID":"SID104207725","mean Z score":0.0687,"ATP luminescence, replicate 1":65554,"ATP luminescence, replicate 2":59294,"Outcome":"inactive"}

Next part; the last 2 above are carried over.
{"target":"JhI-21 (Juvenile hormone Inducible-21)","PubChem SID":"SID104181953","mean Z score":-0.424,"ATP luminescence, replicate 1":50481,"ATP luminescence, replicate 2":49966,"Outcome":"inactive"}
{"target":"JhI-21 (Juvenile hormone Inducible-21)","PubChem SID":"SID104207725","mean Z score":0.0687,"ATP luminescence, replicate 1":65554,"ATP luminescence, replicate 2":59294,"Outcome":"inactive"}
{"target":"Sema1a (Semaphorin 1a)","PubChem SID":"SID104183225","mean Z score":-0.425,"ATP luminescence, replicate 1":42559,"ATP luminescence, replicate 2":36747,"Outcome":"inactive"}
{"target":"PIG-A (Phosphatidylinositol glycan anchor biosynthesis class A)","PubChem SID":"SID104186774","mean Z score":0.0892,"ATP luminescence, replicate 1":32907,"ATP luminescence, replicate 2":30902,"Outcome":"inactive"}
{"target":"CG43795","PubChem SID":"SID104183984","mean Z score":-0.434,"ATP luminescence, replicate 1":45903,"ATP luminescence, replicate 2":36199,"Outcome":"inactive"}
{"target":"CG43795","PubChem SID":"SID104184102","mean Z score":-1.13,"ATP luminescence, replicate 1":35102,"ATP luminescence, replicate 2":40913,"Outcome":"inactive"}
{"target":"CG43795","PubChem SID":"SID104205296","mean Z score":0.132,"ATP luminescence, replicate 1":73319,"ATP luminescence, replicate 2":52281,"Outcome":"inactive"}
{"target":"CG12376","PubChem SID":"SID104208008","mean Z score":-0.322,"ATP luminescence, replicate 1":54064,"ATP luminescence, replicate 2":58849,"Outcome":"inactive"}
{"target":"CG12376","PubChem SID":"SID104217095","mean Z score":-0.0443,"ATP luminescence, replicate 1":51064,"ATP luminescence, replicate 2":50875,"Outcome":"inactive"}
{"target":"CG13995","PubChem SID":"SID104202131","mean Z score":0.684,"ATP luminescence, replicate 1":55684,"ATP luminescence, replicate 2":58386,"Outcome":"inactive"}
{"target":"CG13995","PubChem SID":"SID104206567","mean Z score":1.48,"ATP luminescence, replicate 1":83734,"ATP luminescence, replicate 2":77782,"Outcome":"inactive"}
